Measured values published in US20140329863A1 (priority 2011, published 2014).

How the values were obtained:
[1] = tested on: PrP^Sc in dividing ScN2a-cl3 cells; format: cell-based, mouse; conditions: FDA-approved drugs, ScN2a-c13 assay, read-out: Potency (μM) ELISA (EC50)

SMILES: Clc1ccc2c(c1)CCc1cccnc1C2=C1CCNCC1 [Desloratidine]
- EC50 [1]: 6.66 µM
- Potency (μM) Cell Viability (N2a-cl3 cells): 9.561 µM
